PubChem BioAssay AID504774 – Drosophila RNAi Screening Center – 2011

Assay: 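Knock-downs that shift viability of MMS-exposed cells relative to untreated ones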 (primary screen)
Cell system: Drosophila Kc167 cells
Reagent: long dsRNA against Drosophila genes, about 0.25 µg dsRNA per well
Duration: about 6 days: 3 days knock-down, then 3 days with or without MMS
Treatment: methyl methanesulphonate 0.004% (w/v) for 3 days after knock-down
Measured: 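Viability in wells given MMS, read as ATP luminescence, normalised by quantiles plate by plate and averaged across replicates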
Direction: mean viability with MMS: higher = more surviving cells after MMS
The deposit covers about 23,000 reagents; this is an unselected part of those that have a named target and a result. 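Values are quantile-normalised luminescence on an arbitrary scale; higher means more cells surviving MMS.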 Not all columns of the deposit are shown.

mean viability with MMS, by gene and reagent
Pka-R1: DRSC11674 3.49e6; DRSC11875 3.51e6
RpS24: DRSC04414 2.97e6
CG9503: DRSC20186 3.60e6; DRSC21766 3.44e6
Ubx: DRSC16891 3.68e6
CG7443: DRSC16244 3.59e6
Sirt7: DRSC14294 3.42e6
CG8785: DRSC07266 3.41e6
Paf-AHalpha: DRSC20267 3.51e6
CG31960: DRSC00281 3.50e6
CG13297: DRSC09971 3.77e6
lncRNA:CR32657: DRSC19403 3.59e6
Oatp33Ea: DRSC02859 3.32e6
veli: DRSC16276 3.49e6
CG33290: DRSC11493 3.54e6
Akh: DRSC08138 3.54e6
MED21: DRSC20932 3.61e6
Pdf: DRSC16786 1.80e6
Gr59c: DRSC04185 3.59e6
EMC7: DRSC07162 3.72e6
cdi: DRSC16922 3.55e6
Fis1: DRSC07772 3.69e6
CG18368: DRSC06731 3.72e6
eIF2Bbeta: DRSC18465 3.36e6
CG8065: DRSC10959 3.47e6
CG15734: DRSC19701 3.67e6
thoc6: DRSC10528 3.63e6
Srrm234: DRSC07955 3.63e6; DRSC08606 3.54e6
GstE11: DRSC06926 3.55e6
CG13085: DRSC02189 3.56e6
CG11382: DRSC18624 3.53e6
Nca: DRSC11233 3.52e6
msps: DRSC17004 3.49e6
Pop1: DRSC17739 3.51e6
CG30480: DRSC06736 3.65e6
CG6508: DRSC02963 3.52e6
SdhBL: DRSC20039 3.61e6
CG3598: DRSC18471 3.54e6
cDIP: DRSC14267 3.59e6
Vps35: DRSC04519 3.50e6
vap: DRSC20275 3.51e6
Or1a: DRSC18689 3.57e6

Entries above whose gene name starts with G or g:
mean viability with MMS, by gene and reagent
Gr59c: DRSC04185 3.59e6
GstE11: DRSC06926 3.55e6

Continued.
mean viability with MMS, by gene and reagent
Gr47b: DRSC05275 3.44e6
Nak: DRSC03379 3.55e6
CG17440: DRSC18126 3.60e6
CG31650: DRSC03140 3.45e6
mab-21: DRSC18791 3.87e6
GstE4: DRSC06674 3.58e6
Hexim: DRSC15490 3.44e6
CG3355: DRSC00598 3.49e6
CG44014: DRSC14995 3.69e6
rept: DRSC11388 3.12e6
Cog4: DRSC03057 3.40e6
Hou: DRSC20001 3.86e6; DRSC22347 3.05e6
Cyp6a14 (retired record): DRSC07376 3.49e6
Abl: DRSC09661 3.67e6; DRSC23306 3.48e6
CG2794: DRSC00534 3.52e6
Der-1: DRSC00301 3.56e6
CG6938: DRSC10752 3.60e6
CR33283: DRSC22918 3.47e6
CG8407: DRSC07167 3.69e6
Nepl14: DRSC15631 3.68e6
Toll-4: DRSC03458 3.55e6
RabX5: DRSC08608 3.62e6
